Drawing on patent US5436128A, “Assay methods and compositions for detecting and evaluating the intracellular transduction of an extracellular signal” (Salk Institute Biotechnology/Industrial Associates, priority 1993, dated 1995), this text covers IC50 for one compound.

The chains behind the UniProt entries cited, without tags or fusion partners.
UniProt P20309, whole entry: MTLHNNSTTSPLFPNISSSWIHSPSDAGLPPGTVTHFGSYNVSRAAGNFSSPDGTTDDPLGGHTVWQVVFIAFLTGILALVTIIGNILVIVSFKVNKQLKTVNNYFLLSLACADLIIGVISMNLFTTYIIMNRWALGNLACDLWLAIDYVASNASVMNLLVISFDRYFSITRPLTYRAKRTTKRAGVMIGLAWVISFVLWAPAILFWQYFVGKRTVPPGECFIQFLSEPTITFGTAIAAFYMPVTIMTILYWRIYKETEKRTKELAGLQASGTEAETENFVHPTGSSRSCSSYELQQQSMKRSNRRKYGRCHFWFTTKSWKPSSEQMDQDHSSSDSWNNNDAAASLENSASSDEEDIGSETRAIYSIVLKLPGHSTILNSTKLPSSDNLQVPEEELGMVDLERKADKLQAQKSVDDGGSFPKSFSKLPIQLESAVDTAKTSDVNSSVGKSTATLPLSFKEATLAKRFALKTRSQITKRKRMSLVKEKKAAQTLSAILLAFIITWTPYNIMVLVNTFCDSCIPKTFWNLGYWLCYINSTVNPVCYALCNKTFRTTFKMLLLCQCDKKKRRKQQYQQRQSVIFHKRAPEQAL

In test [1] the target is M1 receptor. As to conditions: read-out: IC50 for displacement of specifically bound 3H-NMS, PC12 cells, 1 hr, 37° C.
Test [2] has as its target M1 receptor (Homo sapiens, UniProt P20309). In words: biochemical.
In the next test the target is M1 muscarinic receptor (Homo sapiens, UniProt P20309). In words: cell-based.

The term IC50 denotes the midpoint of a concentration-inhibition curve.

As to `CN1[C@@H]2C[C@@H](OC(=O)[C@H](CO)c3ccccc3)C[C@H]1[C@@H]1O[C@@H]12` [scopolamine], the results for the half-inhibitory concentration (IC50) on M1 receptor [1], at M1 receptor [2] and against M1 muscarinic receptor were 5 nM, 4 nM and 36 nM, respectively.
